In PMC8396726:
No constants are given. Whether binding was seen depends on the method and setting. In cells and extracts the contact can be indirect. A yes stands for co-enrichment or nearness to the bait. Other partners may have been found. For some assays here: A no says only that the protein was not detected with the bait.

Key:
[1] = biological target: PfGCN5-ΔBrD::GFP (P. falciparum 3D7); test: affinity purification with mass spectrometry; IP with GFP-Trap from trophozoite nuclear extracts of the PfGCN5::GFP, GCN5-ΔBrD::GFP and PHD1-ΔPHD::GFP lines; LC-MS/MS; SAINT probability >94%, FDR <1%
[2] = biological target: PfPHD1-ΔPHD::GFP (P. falciparum 3D7); test: as above

B1: PF3D7_1019700 (protein, UniProt Q8IJK5 1-1074)
chain: MYKSERHKDITHSNRTKRNEQKNSDILNKVSNEKCLENNTNESLCNKMDNCINKQNNINRQNDINRQNDINSQNSVGSQNNRNHKKCVNKSRQKYNKIERKKKKNASSLLGDNCVQETEDTHHEKSLNDDCLNMEQNKEIVNDHLKEIEKKNSDNEIKADINDEKLQLERDYVIEAADQNKDALTLCVCVEDDRKKYVTKEKVNEKDMKGDNNEKDMEYDNNKKDMEYDQDEKDMEYDQDVKDIEGDNNKKDMEDDKNEKDMENDNNKKDMEGDQDKKDMEGDQDKKDMEGDNNKKDMEGDKNEKDMEGDNNKKDMEGDKNEKDMEGDNNKKDMEGDKNEKDMEGDNNKKDMEGDNNKKDMEGDKDAKDIICDNNITLKNKIPINNLNDNNIVCNYKHRDTIEEADNNYVVENITQVNNIDEIKLKRKRKRKNNFSEYIQEEREDNFIKDKNYNALKTLKDSKRILLNCNKYIEDNNMYKIEDNVQNNNVCGNLLCEEKCNNYRQIDKNEKYEKNEKNDKYDKYEKYDKYENYDKYEKYDKYEKYDKYENYDKYEKYDKYEKYDKYEKYDKYEKYDKYEKNDDSRKDNIDICNKINLPRVYDNIIQSDSNNLNKYKGSSFALIIHEISDLLSLITTVDKSKNKNKIKLVNIGHKLNTLMRSHYERIYDCDNSLVSIINKIKKLYKCYRSMEEKYLKKTKKQNINININTNTNTNTNTNKIEKENVAGNNDEEDPNDGINILHDDLLKEEINNIDNNIKNDINKYTIKCNNNNEKLIQDPFFQNEFVQGIDNYINQKDENNCHDNIKDKIDTLNCYINEKLNMDCQNIFIQKGDYKKVLNQMGEKAIYEGNEKDNHKGNNTMEHIKINDDNKTMEHIKINDENKTMEHIKINDENNTMEHIKINDENNTMEHIKINDENKTMEHIKINDENKTMEHININDENNTMEHIKINDENKTMEHININDENNTMEHIKINDENNTMEHINKSIIKNIGSMESKSTAVTYKECELSLKEEKEEYIEYLKKKKKILKELDKCNSHFFFTYFHKGELIEYLHNQINMHIVEFDKIYQLYISH
For B1, the binding [1] was “binds” and the binding [2] was “no binding”.
